Among all 320,000 compounds or so, about 2,100 (0.66%) were called active. The shares of active, inactive and inconclusive entries below differ from those in the screen. Calls come from the whole dose curve; as a rule, active = well fitted inhibition curve with a large enough effect in the signal ratio, with a control signal flat (not every such curve was filed as active); inconclusive = small, poorly fitted or top-dose-only effect, or effect the other way, or a change in a side signal; inactive = flat fitted curve, though single readings scatter; the % refers to the signal ratio. A potency beside an inconclusive call is a rough fit, not a confirmed value.
Test: qHTS Assay for Lipid Storage Modulators in Drosophila S3 Cells
Conditions: BODIPY lipid droplet fluorescence, 18-24 h, cells fed with added oleic acid; lipid storage change, negative = inhibition: at 46.1 µM (top of the series) unless noted
Outline: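 Drosophila S3 cells loaded with oleic acid (400 uM, as added) and compounds at several concentrations; lipid droplets imaged by 488-nm laser-scanning cytometry, 500–530 nm intensity and object ratio to cell channel. Percent activity normalized to 20 uM Triacsin C.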
For Cc1ccc(-c2cn(CCC(=O)O)c(-c3ccc(Cl)nc3)n2)cc1, the Potency was inconclusive: 8200 nM [activator, partial curve].
For Cc1cc(OCC(=O)O/N=C(\N)c2ccccc2)ccc1Br, the Potency was inconclusive: 14600 nM [activator, partial curve].
For O=C(NN1C(=O)NC2(CCCCC2)C1=O)c1ccc(-c2ccc([N+](=O)[O-])cc2)o1, the lipid storage change, negative = inhibition was inconclusive: 15.3%.
For CCCC(C(=O)O)n1c(O)c(C=C2N=c3ccccc3=N2)sc1=S (configuration not stated), the lipid storage change, negative = inhibition was inconclusive: 1.49%.
For CCOc1ccccc1NS(=O)(=O)N(C)C, the lipid storage change, negative = inhibition was inconclusive: 0.593%.
In the case of C[C@]12CC[C@@H]3c4ccc(O)cc4CC[C@H]3[C@@H]1C[C@@H](O)[C@@H]2O[C@@H]1O[C@H](C(=O)O)[C@@H](O)[C@H](O)[C@H]1O, the lipid storage change, negative = inhibition is reported as inconclusive: -6.57%.
For CCOC(=O)C1=C(C)Nc2ccccc2N/C1=N\S(=O)(=O)c1ccc(Cl)cc1, the Potency was inconclusive: 411 nM [falling, full curve].
In the case of O=C(CNC(=O)c1ccc(Cl)cc1Cl)OCC(=O)N1CCCC1, the Potency is reported as inconclusive: 2060 nM [activator, partial curve, poor fit].
For CC(=O)c1cccc(Nc2ccc(-c3ccccc3F)nn2)c1, the lipid storage change, negative = inhibition was inconclusive: 9.6%.
In the case of O=C(Nc1nc2ccccc2n1Cc1ccccc1)c1ccco1, the lipid storage change, negative = inhibition is reported as inconclusive: 24.5%.
With CCOC(=O)C(Cc1c(F)cccc1F)(NC(C)=O)C(=O)OCC the Potency was inconclusive: 1160 nM [falling, full curve].
For O=S(=O)(c1cccc(C(F)(F)F)c1)N1CCN(c2cnccn2)CC1, the lipid storage change, negative = inhibition was inconclusive: 24%.
With Cc1ccc(NC(=O)c2sccc2-n2cccc2)c(C)c1 the Potency was inconclusive: 130 nM [rising, full curve, poor fit].
In the case of C/C(=N\NC(=O)CSc1nc(C)cc(C)n1)c1cccc([N+](=O)[O-])c1, the lipid storage change, negative = inhibition is reported as inconclusive: 2.03%.
In the case of CC(C(=O)N1c2ccccc2CCc2ccccc21)n1nnc(-c2ccc(N(C)C)cc2)n1 (configuration not stated), the lipid storage change, negative = inhibition is reported as inconclusive: -15.6%.
For COCCCNC(=O)c1cccc(C(=O)NCCCOC)c1, the Potency was inconclusive: 29100 nM [falling, single point].
With CC(C)C[C@H](N)c1nnc(SCC(=O)Nc2ccc(Br)cc2)o1 the lipid storage change, negative = inhibition was inconclusive: 0.749%.
In the case of Cc1csc(NC(=O)c2ccc3c(c2)OCO3)n1, the lipid storage change, negative = inhibition is reported as inconclusive: -9.52%.
For O=C(c1cccs1)N(CCN1CCCCC1)CC1CCCN(C2CCCC2)C1 (configuration not stated), the lipid storage change, negative = inhibition was inconclusive: 27.1%.
With Cc1cccc2nc(CSc3nc4[nH]ncc4c(=O)n3-c3ccccc3Cl)cc(=O)n12 the lipid storage change, negative = inhibition was inconclusive: 23.2%.
In the case of COCCCn1cnc2c(c1=O)c1nc3ccccc3nc1n2-c1ccc(C)cc1, the lipid storage change, negative = inhibition is reported as inconclusive: 18%.
With COc1ccccc1CCC(=O)Nc1nc2ccccc2[nH]1 the Potency was inconclusive: 517 nM [activator, full curve].
In the case of COc1ccc(OCCCC(=O)Nc2nnc(C3CCCO3)s2)cc1 (configuration not stated), the lipid storage change, negative = inhibition is reported as inconclusive: 28.7%.
For CCC1S/C(=N\S(=O)(=O)c2cccs2)N(C2CCCCC2)C1=O (configuration not stated), the Potency was inconclusive: 651 nM [falling, single point].
For COCCN1C(=O)C(O)=C(C(C)=O)C1c1ccc(F)cc1 (configuration not stated), the lipid storage change, negative = inhibition was inconclusive: 44.9%.
In the case of O=C(Nc1nc(-c2ccco2)c(-c2ccco2)s1)c1ccco1, the Potency is reported as inconclusive: 7310 nM [activator, partial curve, poor fit].
With COC(=O)c1sc2nc(-c3ccco3)ccc2c1N the Potency was inconclusive: 731 nM [falling, partial curve, poor fit].
For COc1ccc(S(=O)(=O)N2CCc3ccccc32)cc1C(=O)O, the lipid storage change, negative = inhibition was inconclusive: 20.2%.
In the case of CCOC(=O)[C@H](CCc1ccccc1)N[C@@H](C)C(=O)N1CCC[C@H]1C(=O)O, the lipid storage change, negative = inhibition is reported as inconclusive: -5.48%.
In the case of CC12CC3(C)CC(C)(C1)CC(C(=O)NCC(=O)O)(C2)C3, the Potency is reported as active: 1460 nM.
With CCc1ccc(CCC(=O)Nc2nc(CC(C)=O)ns2)o1 the lipid storage change, negative = inhibition was inconclusive: 63.8%.
For CCOc1ccc(S(=O)(=O)N2CCOCC2)cc1NC(=O)C1CSC2(C)CCC(=O)N12 (configuration not stated), the lipid storage change, negative = inhibition was inconclusive: 31.9%.
With Cc1nn2cc(-c3ccccc3)nc2[nH]c1=O the lipid storage change, negative = inhibition was inconclusive: -21.3%.
With CC(C)OP(=O)(OC(C)C)C(Nc1ccc(C(=O)O)cc1)c1ccccc1 (configuration not stated) the “lipid storage change, negative = inhibition” value was inactive: -19.3%.
In the case of O=C(c1ccc(S(=O)(=O)N2CCCCC2)cc1)N1CCN(Cc2ccc3c(c2)OCO3)CC1, the Potency is reported as inconclusive: 3660 nM [activator, partial curve, poor fit].
In the case of CC(C)(O)C(=O)NNC(=S)Nc1ccc(F)c(Cl)c1, the lipid storage change, negative = inhibition is reported as inconclusive: -2.46%.
With CN(Cc1ccccc1)S(=O)(=O)c1ccc(Cl)c(C(=O)NCCCN2CCOCC2)c1 the Potency was inconclusive: 29100 nM [falling, single point].
% is set by controls: 0 for no effect and ±100 for the full control effect; potency is the fitted concentration of half-maximal effect.
